# Measured values reported in patent US20220090143.
# Protein sequences, listed by entry. Tags and fused reporters are not part of them. Lines headed by an entry give the natural chain unless they say otherwise; changes in a name come on top.
# UniProt P03870: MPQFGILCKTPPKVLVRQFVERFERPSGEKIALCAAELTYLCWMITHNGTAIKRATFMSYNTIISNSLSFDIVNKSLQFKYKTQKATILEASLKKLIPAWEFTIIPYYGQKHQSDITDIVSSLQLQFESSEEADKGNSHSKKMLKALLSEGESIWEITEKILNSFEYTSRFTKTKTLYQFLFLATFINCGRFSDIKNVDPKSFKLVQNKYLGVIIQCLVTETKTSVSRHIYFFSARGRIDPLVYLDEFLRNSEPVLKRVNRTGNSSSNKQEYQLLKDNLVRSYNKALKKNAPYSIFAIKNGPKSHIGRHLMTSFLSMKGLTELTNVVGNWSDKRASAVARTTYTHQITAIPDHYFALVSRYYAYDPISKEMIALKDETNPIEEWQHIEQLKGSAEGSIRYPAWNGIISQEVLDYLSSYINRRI
# Where a protein sequence is shown, tags need not be part of it.
# Molecular target: T1, FLP recombinase (UniProt P03870)
# T1 sequence (limits assumed): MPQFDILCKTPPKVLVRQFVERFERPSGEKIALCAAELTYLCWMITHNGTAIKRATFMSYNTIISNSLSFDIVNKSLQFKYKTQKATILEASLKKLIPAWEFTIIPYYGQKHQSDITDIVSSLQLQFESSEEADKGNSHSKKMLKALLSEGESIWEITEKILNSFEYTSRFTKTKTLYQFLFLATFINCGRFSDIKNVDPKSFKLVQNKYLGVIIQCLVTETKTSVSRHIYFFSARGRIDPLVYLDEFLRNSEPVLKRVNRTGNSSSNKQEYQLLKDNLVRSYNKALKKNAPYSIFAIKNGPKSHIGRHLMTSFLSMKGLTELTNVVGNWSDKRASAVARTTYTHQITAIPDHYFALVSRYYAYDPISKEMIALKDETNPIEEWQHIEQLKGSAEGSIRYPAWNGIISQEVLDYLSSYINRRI
# Test: activity in cells
# Settings: correct excision (only gntR left); 10 of 60 retained kanR; 1 of 60 lost all resistances; protein in cells; variant of FRTwt; only the site is given
sequence,measurement,value
GAAGTTCCTATTCCGAAGTTCCTATTCTCATATAAGTATAGGAACTTC (double strand) [FRT13],activity on this sequence,active
